Measured values taken from article PMC11289419.

By UniProt entry, the sequences of proteins in these tests, tags left out. Where a name states a change or a piece, a line headed by the entry shows the natural chain unless it says otherwise.
UniProt P04891: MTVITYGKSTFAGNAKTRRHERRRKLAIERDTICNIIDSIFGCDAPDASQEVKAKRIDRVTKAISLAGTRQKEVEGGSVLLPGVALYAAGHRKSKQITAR
UniProt P22629: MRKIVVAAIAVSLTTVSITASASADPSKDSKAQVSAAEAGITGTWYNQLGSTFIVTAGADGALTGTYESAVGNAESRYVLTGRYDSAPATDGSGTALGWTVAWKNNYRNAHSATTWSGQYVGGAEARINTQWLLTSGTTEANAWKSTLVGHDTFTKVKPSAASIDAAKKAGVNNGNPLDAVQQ

Tests used:
[1] = molecular target: P22 N peptide (bacteriophage P22) (UniProt P04891); assay: fluorescence microscopy recruitment to RNA condensate; conditions: Multi-stranded: 40 mM HEPES, 100 mM KCl, 500 mM NaCl, 5 uM strands (1.25 uM aptamer strand), 70 C melt, 12 h hold (50 C), imaged after 20 C
[2] = molecular target: streptavidin (fluorescently labeled) (UniProt P22629); assay: as above; conditions: non-cognate, cross-binding only for TAT; Multi-stranded: 40 mM HEPES, 100 mM KCl, 500 mM NaCl, 5 uM strands (1.25 uM aptamer strand), 70 C melt, 12 h hold (50 C), imaged after 20 C; commercial protein; protein details: fluorescent label

GCGAGAGCGCUGCCCAAGCGCGUAGGGCAGCGCUCUCGCAAGCGAUGAACGUAGGGAAGCGCGUACCCUACGUUCAUCGCAAGCGUUCACACUGACCAAGCGCGUAGGUCAGUGUGAACGCAAGGUGCGCUGACAAAGCGCGCC [3sv2_BoxB (stem1)]
binding result ([1]; co-transcriptional condensates, peptide present from start or added after): binds

GGUGCGCUGACAAAGCGCGCCGAGCUCAGAGUCUCUGGUCGCCAAGCUUAUCGGACACUG / GAGCUCAAGUAGGCACAUCAGCAAGGCGACCAGAGACUC / GAGCUCAUGCGUGGAGACAACGAAGCUGAUGUGCCUACU / GAGCUCACAGUGUCCGAUAAGCAACGUUGUCUCCACGCA [4m5 nanostar with P22 boxB]
binding result [2]: no binding

GAUGCGGCCGCCGACCAGAAUCAUGCAAGUGCGUAAGAUAGUCGCGGGUCGGCGGCCGCAUCGCGCAUCCACGGCGUGUCGCAAGACGCCGACGCGUCG / GCGCAGUCGGGAUAUACCGGAAGCGACACGCCGUGGA / GCGCAAGUCCACAGUGGCGCAACCGGUAUAUCCCGAC / GCGCACGACGCGUCGGCGUCAAGCGCCACUGUGGACU [4m3 nanostar with streptavidin aptamer]
binding result ([1]; non-cognate, cross-binding only for TAT): no binding

Negatives hold for the conditions tested. At least one verdict was read from the data and is not stated in words by the source. For part of these data: Construct, isoform or probe ends are uncertain for at least one entry.
